PubChem BioAssay AID652272, Drosophila RNAi Screening Center – 2013
In all, the deposit lists about 21,000 reagents; shown is an unselected part of those that have a named target and a result. Of all reagents, 503 (2.4%) got an active call. 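Raw plate light values, not normalised; calls rest on replicate z-scores that were not deposited; hits include reporter decreases as well as increases.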 Not stated in the record: the amount of reagent, the time to read-out.

- Screen: 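Genes whose knock-down decreases or increases Hedgehog reporter output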 (primary screen)
- Cells: Drosophila clone 8 (Cl8) cells
- Reagent: long dsRNA against Drosophila genes
- Read-out: 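Firefly light from a Hedgehog-responsive ptc promoter reporter and Renilla reference light, both read on a plate reader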
- Scale: firefly Hh reporter signal: higher = more ptc reporter light; Renilla reference signal: higher = more Renilla control light
- Active means: 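Hit when the z-score averaged over two replicates is under -2 or over +3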
- Calls: active = hit: reporter lowered or raised; inactive = not a hit

{"target gene":"CG34012","firefly Hh reporter signal, replicate 1":94400,"firefly Hh reporter signal, replicate 2":1.26e5,"Renilla reference signal, replicate 1":3654,"Renilla reference signal, replicate 2":8381,"call":"active"}
{"target gene":"CG12426","firefly Hh reporter signal, replicate 1":1.11e5,"firefly Hh reporter signal, replicate 2":94756,"Renilla reference signal, replicate 1":4392,"Renilla reference signal, replicate 2":2992,"call":"inactive"}
{"target gene":"Dhc64C (Dynein heavy chain 64C)","firefly Hh reporter signal, replicate 1":1.39e5,"firefly Hh reporter signal, replicate 2":56086,"Renilla reference signal, replicate 1":5025,"Renilla reference signal, replicate 2":2596,"call":"inactive"}
{"target gene":"CG12057","firefly Hh reporter signal, replicate 1":1.16e5,"firefly Hh reporter signal, replicate 2":2.22e5,"Renilla reference signal, replicate 1":3608,"Renilla reference signal, replicate 2":9104,"call":"inactive"}
{"target gene":"CG17258","firefly Hh reporter signal, replicate 1":1.51e5,"firefly Hh reporter signal, replicate 2":85184,"Renilla reference signal, replicate 1":1991,"Renilla reference signal, replicate 2":7371,"call":"inactive"}
{"target gene":"Tpi (Triose phosphate isomerase)","firefly Hh reporter signal, replicate 1":61699,"firefly Hh reporter signal, replicate 2":67987,"Renilla reference signal, replicate 1":757,"Renilla reference signal, replicate 2":1968,"call":"inactive"}
{"target gene":"pad (poils au dos)","firefly Hh reporter signal, replicate 1":1.07e5,"firefly Hh reporter signal, replicate 2":95116,"Renilla reference signal, replicate 1":2520,"Renilla reference signal, replicate 2":2955,"call":"inactive"}
{"target gene":"BTBD9 (BTB (POZ) domain containing 9)","firefly Hh reporter signal, replicate 1":1.31e5,"firefly Hh reporter signal, replicate 2":3.41e5,"Renilla reference signal, replicate 1":3703,"Renilla reference signal, replicate 2":12220,"call":"inactive"}
{"target gene":"CG13311","firefly Hh reporter signal, replicate 1":44320,"firefly Hh reporter signal, replicate 2":68840,"Renilla reference signal, replicate 1":4672,"Renilla reference signal, replicate 2":3312,"call":"inactive"}
{"target gene":"P58IPK","firefly Hh reporter signal, replicate 1":87944,"firefly Hh reporter signal, replicate 2":87611,"Renilla reference signal, replicate 1":3306,"Renilla reference signal, replicate 2":2539,"call":"inactive"}
{"target gene":"S6KL (S6 Kinase Like)","firefly Hh reporter signal, replicate 1":1.52e5,"firefly Hh reporter signal, replicate 2":1.32e5,"Renilla reference signal, replicate 1":3736,"Renilla reference signal, replicate 2":3542,"call":"inactive"}
{"target gene":"CG7611","firefly Hh reporter signal, replicate 1":1.51e5,"firefly Hh reporter signal, replicate 2":1.64e5,"Renilla reference signal, replicate 1":4762,"Renilla reference signal, replicate 2":5693,"call":"inactive"}
